PubChem BioAssay AID652054 (National Center for Advancing Translational Sciences (NCATS), 2013)
Where “and” joins values, the source holds several entries; their conditions need not be identical. Equal values may be shown once. Out of some 360,000 compounds screened, about 9,100 (2.5%) were called active. Inconclusive results, whose numbers are uncertain, are shown with a selection of clear calls. Cut-off read from the data, not from the text of the source: active = max response below about -50%; inconclusive = no clear call, values can overlap the other calls; inactive = above that.

Protein sequences, listed by entry. Tags and fused reporters are not part of them.
UniProt P35462, whole entry, looked up: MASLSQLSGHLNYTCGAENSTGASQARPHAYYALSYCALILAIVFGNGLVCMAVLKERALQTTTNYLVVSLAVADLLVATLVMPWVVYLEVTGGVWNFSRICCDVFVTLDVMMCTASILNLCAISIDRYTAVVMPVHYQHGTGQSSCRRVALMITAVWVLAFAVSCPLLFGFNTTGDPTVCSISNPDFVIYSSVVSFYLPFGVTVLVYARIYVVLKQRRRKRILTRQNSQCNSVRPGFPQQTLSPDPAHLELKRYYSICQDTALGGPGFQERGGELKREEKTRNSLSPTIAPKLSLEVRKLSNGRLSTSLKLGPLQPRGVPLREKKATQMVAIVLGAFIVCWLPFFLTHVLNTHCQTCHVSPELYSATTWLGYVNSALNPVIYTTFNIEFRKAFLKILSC

Target: D(3) dopamine receptor (Homo sapiens) (UniProt P35462)
Experiment: qHTS of D3 Dopamine Receptor Antagonist: qHTS
Conditions: D3R cells, DiscoveRx beta-arrestin luminescence, antagonist mode; stronger effect = lower value
Summary of the method: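 Cells plated overnight at 1500 cells/well, then exposed to library compounds with dopamine controls for 90 minutes at 37 degrees C. DiscoveRx reagent added for 30–60 minutes at room temperature; luminescence read, quantitative HTS format.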
% is set by controls: 0 for no effect and ±100 for the full control effect.

Row | Compound | max response, negative = inhibition
1 | O=C(Nc1ccccc1)Nc1ccccc1C(=O)NCC1CC1 | inactive: -12.1%
2 | CCn1c2ccccc2c2cc(NC(=O)C(=O)N3CCOCC3)ccc21 | inconclusive: -34.8%
3 | COc1ccc(C2=Nn3c(nnc3-c3ccncc3)SC2)cc1OC | inconclusive: -42.4%
4 | C[C@H]1CN([C@@H](C)CO)C(=O)CCCn2nncc2CO[C@H]1CN(C)S(=O)(=O)c1cccs1 | inactive: -29.6%
5 | O=S(=O)(Nc1ccc(-n2cccc2)cc1)c1ccccc1 | inconclusive: -31.8%
6 | COC(=O)C1=C(O)/C(=C\c2cc(C)n(-c3ccccc3C)c2C)N=C1C | inconclusive: -33.6%
7 | S=C(NCc1ccccn1)Nc1ccc(Cl)c(Cl)c1 | inactive: -24.9%
8 | Cc1ccc(SCC2=NNC(=O)C2)cc1 | inconclusive: -37.9%
9 | c1ccc(N2CCN(Cc3ccc4c(c3)OCO4)CC2)nc1 | inconclusive: -38.4%
10 | S=c1[nH]nc(-c2cccnc2)n1/N=C/c1ccco1 | active: -50.5%
11 | CCCC(=O)N1CCN(c2ccc(NC(=O)c3ccc([N+](=O)[O-])o3)cc2Cl)CC1 | inconclusive: -33%
12 | CCNC(=S)NNC(=O)c1csc2c1CCC(C)C2 (stereo not drawn) | inconclusive: -41.2%
13 | O=C(c1cccs1)N1CCN(S(=O)(=O)c2ccc(F)cc2)CC1 | inconclusive: -31.5%
14 | NC(=O)[C@@H]1CC2(CC(c3cccc(NC(=O)[C@H]4CCC(=O)N4)c3)=NO2)CN1C(=O)COc1ccc(Cl)cc1 (stereo partly drawn) | inconclusive: -40.6%
15 | O=S(=O)(NCCc1cccs1)c1ccc(Br)cc1 | inconclusive: -34.2%
16 | CC(=O)c1ccc(NC(=O)CO/N=C(\C)c2cccs2)cc1 | inactive: -0.773%
17 | COc1ccc(-c2nc3cc(C)c(Br)c(C)n3c2CC(C)(C)C)cc1OC | inactive: 24%
18 | O=C(NC1CCCN(Cc2ccc(Cl)cc2)C1)c1cccc(F)c1 (stereo not drawn) | inconclusive: -46.9%
19 | Cn1c(SCC(=O)NNC(=O)Cc2ccccc2)nc2ccccc2c1=O | inactive: -1.69%
20 | O=C(O)C(O)c1ccccc1 (stereo not drawn) | inactive: 10.2% and inactive: -0.291%

Row | Compound | max response, negative = inhibition
21 | CC(=O)c1ccc(NC(=S)NCCCn2ccnc2)cc1 | inconclusive: -41.8%
22 | O=C(NCCN1CCN(c2ccccc2F)CC1)c1cccn2c(=O)c3ccccc3nc12 | active: -50.2%
23 | C/C(=N\NS(=O)(=O)c1ccc(Cl)c([N+](=O)[O-])c1)c1ccc(C)o1 | active: -70.4%
24 | Cc1ccccc1CN1CCN(Cc2cc3ccccc3o2)CC1CCO (stereo not drawn) | inconclusive: -43.8%
25 | CN(C(=S)Nc1ccc(Oc2ccccc2)cc1)c1ccc(O)cc1 | inconclusive: -40.5%
26 | C=CCN(CC=C)CCCOc1ccccc1C(=O)OC | inconclusive: -30.2%
27 | COCCNc1nc(Nc2ccc(F)cc2)c2sccc2n1 | inactive: 11.5%
28 | O=C(Cc1cccc2ccccc12)NNC(=O)Nc1cccc(Cl)c1 | inconclusive: -39.5%
29 | Cc1nnc(N2C(=O)c3ccc(Br)cc3C2=O)s1 | inconclusive: -30.6%
30 | O=C(NCc1ccccc1)c1cc(-n2cnnc2)ccc1Cl | inconclusive: -34.4%
31 | Cc1ccc(CN2CC(N3CCN(CCO)CC3)CS2(=O)=O)cc1 (stereo not drawn) | active: -61.4%
32 | O=[N+]([O-])c1ccccc1C1Nc2cccc3cccc(c23)N1 | active: -104%
33 | CC(C)C(NS(=O)(=O)c1ccccc1)C(=O)N1CCCC1 (stereo not drawn) | inactive: -13.6%
34 | CN(CCc1ccccc1)C(=O)c1cc(COc2ccc(F)cc2Cl)on1 | inactive: -12.3%
35 | O=S(=O)(c1ccccc1)N1CCC(N2CCCCCC2)CC1 | inconclusive: -32.7%
36 | CCOC(=O)N1CCc2cc(OC)c(OC)c3c2c1cc1cc(OC)c(OC)cc13 | inactive: 71.1%
37 | Cc1ccc(C(C)C)c(OCc2nn(CC(=O)c3ccc(Cl)cc3)c3[n+]2CCCCC3)c1 | active: -51.6%
38 | CCOC(=O)c1ccc(NC(=S)N(CCCN2CCCC(C)C2)Cc2cccs2)cc1 (stereo not drawn) | active: -86.8%
39 | CN(Cc1ccccc1)c1ncnc2sccc12 | inactive: -14.5%
40 | O=C(CSc1nc(C(F)(F)F)cc(=O)[nH]1)N1CCC(Cc2ccccc2)CC1 | inconclusive: -33.3%

Rewritten as tab-separated lines: 2 of the compounds above.
Row	Compound	max response, negative = inhibition
25	CN(C(=S)Nc1ccc(Oc2ccccc2)cc1)c1ccc(O)cc1	inconclusive: -40.5%
26	C=CCN(CC=C)CCCOc1ccccc1C(=O)OC	inconclusive: -30.2%

Next results.

Row | Compound | max response, negative = inhibition
41 | CNc1nc(-c2ccc3c(c2)CCN3C(=O)c2ccccc2C)cs1 | inactive: 17.9%
42 | O=C(NCc1cccs1)c1cc(S(=O)(=O)N2CCOCC2)ccc1N1CCCC1 | inconclusive: -44%
43 | COc1cc(NS(=O)(=O)c2ccc(F)cc2)c(C(=O)O)cc1OC | inconclusive: -43.9%
44 | O=C(CCC(=O)c1cccs1)NCCc1ccc(F)cc1 | inactive: -16.4%
45 | O=[N+]([O-])c1ccc(-[n+]2ccc3ccccc3c2)c([N+](=O)[O-])c1 | active: -106%
46 | CCN(CC)CC(O)COc1ccc2c(c1)c(C(C)=O)c(C)n2-c1ccccc1 (stereo not drawn) | inconclusive: -42.1%
47 | O=C(COC(=O)c1cc(S(=O)(=O)N2CCc3ccccc3C2)ccc1Cl)NCc1ccco1 | active: -55%
48 | Cc1nc(NCCOc2ccccc2)sc1C(=O)Nc1ccccc1 | inactive: 9.53%
49 | O=C(c1ccc(F)cc1)C1CCN(Cc2ccccc2)CC1 | active: -86.2%
50 | CC(Sc1nc2cc([N+](=O)[O-])ccc2n1-c1ccc(F)cc1)C(=O)NCc1ccc2c(c1)OCO2 (stereo not drawn) | inconclusive: -37.6%
51 | Cc1ccc(CN2CCN(c3cccc4[nH]ccc34)CC2)cc1 | active: -82.3%
52 | C=CCn1c(=O)c2c(nc3n2CC(C)CN3c2cccc(OC)c2)n(C)c1=O (stereo not drawn) | active: -69.2%
53 | Cc1ccc(C)c(OCc2n[nH]c(=S)o2)c1 | inconclusive: -36.5%
54 | Cc1c(C(=O)O)cccc1-c1ccc(/C=N/Nc2ccc(Br)cc2)o1 | inconclusive: -41.6%
55 | OC(COCC1COc2ccccc2O1)CN1CCN(c2ccccc2F)CC1 (stereo not drawn) | inconclusive: -49.4%
56 | O=C1CC(c2ccco2)Sc2nc3ccccc3n21 (stereo not drawn) | inconclusive: -32.5%
57 | CCN(CC(=O)Nc1c(F)cccc1F)C(=O)Cc1csc(-c2ccccc2)n1 | inconclusive: -43.6%
58 | CCCNC(=O)CCC(NS(=O)(=O)c1ccc(C)cc1)C(=O)NCCC (stereo not drawn) | active: -56.2%
